One substance from article PMC9602169 can be followed below.

Chains of the proteins cited; added tags and fusions are not shown. Lines headed by an entry give the natural chain unless they say otherwise; changes in a name come on top.
UniProt Q01094: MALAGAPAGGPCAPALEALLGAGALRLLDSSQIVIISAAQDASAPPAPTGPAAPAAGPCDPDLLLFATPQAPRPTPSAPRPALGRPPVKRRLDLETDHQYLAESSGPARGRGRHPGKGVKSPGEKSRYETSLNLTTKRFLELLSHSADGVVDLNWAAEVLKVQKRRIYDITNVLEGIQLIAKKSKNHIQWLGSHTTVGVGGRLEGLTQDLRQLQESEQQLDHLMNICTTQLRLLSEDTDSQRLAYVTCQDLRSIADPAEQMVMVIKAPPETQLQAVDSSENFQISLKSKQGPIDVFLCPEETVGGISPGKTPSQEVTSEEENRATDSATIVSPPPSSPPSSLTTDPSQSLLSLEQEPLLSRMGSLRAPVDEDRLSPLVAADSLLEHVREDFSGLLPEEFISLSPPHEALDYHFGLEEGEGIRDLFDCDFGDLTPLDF
UniProt Q92830: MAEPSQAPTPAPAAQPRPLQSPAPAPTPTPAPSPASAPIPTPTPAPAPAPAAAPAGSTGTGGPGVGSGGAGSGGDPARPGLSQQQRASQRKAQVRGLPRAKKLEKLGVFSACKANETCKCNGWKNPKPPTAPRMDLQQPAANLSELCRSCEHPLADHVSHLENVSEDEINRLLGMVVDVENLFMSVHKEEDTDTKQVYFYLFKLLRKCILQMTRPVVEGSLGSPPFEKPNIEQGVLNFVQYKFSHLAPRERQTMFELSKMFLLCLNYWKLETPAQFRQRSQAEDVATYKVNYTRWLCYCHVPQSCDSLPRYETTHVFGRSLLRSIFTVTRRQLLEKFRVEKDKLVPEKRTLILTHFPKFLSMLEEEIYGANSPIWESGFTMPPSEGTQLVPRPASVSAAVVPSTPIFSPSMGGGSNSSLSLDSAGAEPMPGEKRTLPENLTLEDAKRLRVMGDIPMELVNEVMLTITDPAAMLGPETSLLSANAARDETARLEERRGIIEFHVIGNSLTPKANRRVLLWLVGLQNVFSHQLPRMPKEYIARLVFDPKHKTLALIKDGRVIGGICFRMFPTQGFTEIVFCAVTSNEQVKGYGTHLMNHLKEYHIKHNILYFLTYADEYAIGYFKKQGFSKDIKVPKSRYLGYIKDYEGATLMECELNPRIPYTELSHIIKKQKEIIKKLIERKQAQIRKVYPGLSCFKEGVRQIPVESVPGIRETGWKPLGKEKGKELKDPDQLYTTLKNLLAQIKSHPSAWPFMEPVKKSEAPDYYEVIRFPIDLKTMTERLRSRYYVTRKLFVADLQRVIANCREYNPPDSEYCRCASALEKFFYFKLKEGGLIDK

These are yes or no findings as the source states them, for the method shown. Binding seen in cells or lysates may run through a third protein. Some results given as binding are weak or reduced against the parent protein; the word gives no strength.

This test addresses E2F transcription factor 1 (E2F1) (human (endogenous in MCF-7, 786-O, NCI-H460)) (UniProt Q01094). Description: co-IP; cell lysates incubated with antibody-conjugated beads at 4 °C for 2 h, IgG as control; beads washed and boiled in SDS loading buffer; Western blot.

On to “lysine acetyltransferase 2A (KAT2A) (from UniProt Q92830 1-837)”, for which the binding entry is “binds”.
